# In article PMC12595434, “Development of retinoid nuclear receptor pathway antagonists through targeting aldehyde dehydrogenase 1A3” (iScience, 2025):
# Columns and labels:
# Assay in all cases: Metabolomic profiling of treated cell lines
# AsPC-1 cells = assay type: cell-based, human; settings: AsPC-1:MBE, replicates
# HEK293 = assay type: cell-based; settings: HEK293_Inhibitor
# LN229 cells = assay type: cell-based, human; settings: LN229:MBE, replicates
compound,measurement,setting,value
"CCc1cnccc1C(=O)Nc1cc2c(cc1F)NC(=O)CC2 [MBE1, 3-ethyl-N-(7-fluoro-2-oxo-3,4-dihydro-1H-quinolin-6-yl)pyridine-4-carboxamide]",5-Hydroxylysine raw counts,AsPC-1 cells,16930.4 and 18511.4 and 20393.4
same,Arginine raw counts,AsPC-1 cells,4.21E+07 and 4.24E+07 and 4.26E+07
same,CMP raw counts,AsPC-1 cells,68651.9 and 69412.3 and 72678.9
same,Fructose-6-phosphate raw counts,AsPC-1 cells,162499 and 178347 and 164197
same,GMP raw counts,AsPC-1 cells,13054 and 22426.8 and 14251.8
same,Glutathione disulfide raw counts,AsPC-1 cells,24674.6 and 25067.3 and 37282.5
same,L-arginino-succinate raw counts,AsPC-1 cells,185568 and 205724 and 197815
same,NADP+ raw counts,AsPC-1 cells,20524.8 and 19591.4 and 19571.9
same,NADPH raw counts,AsPC-1 cells,128795 and 164014 and 154507
same,Thiamine pyrophosphate raw counts,AsPC-1 cells,6899.13 and 12226.7 and 17371.9
same,UMP raw counts,AsPC-1 cells,12433.8 and 11626.9 and 12777.6
same,2-Hydroxyglutarate raw counts,HEK293,3334201 and 3370013 and 3258131
same,Asparagine raw counts,HEK293,1.10E+07 and 1.11E+07 and 1.09E+07
same,Aspartate raw counts,HEK293,2.26E+07 and 2.95E+07 and 2.83E+07
same,Cystine raw counts,HEK293,2150908 and 1792681 and 1932809
same,Dihydroxyacetone phosphate raw counts,HEK293,133547 and 130893 and 139305
same,Fumarate raw counts,HEK293,2109985 and 1961945 and 2110337
same,Glucose raw counts,HEK293,2.12E+08 and 1.99E+08 and 2.05E+08
same,Glutamate raw counts,HEK293,3.60E+08 and 4.00E+08 and 3.85E+08
same,Glutamine raw counts,HEK293,2.92E+08 and 3.23E+08 and 3.21E+08
same,Glutathione raw counts,HEK293,4.90E+07 and 5.65E+07 and 5.60E+07
same,Glycerophosphocholine raw counts,HEK293,392609 and 376677 and 389281
same,Hisidine raw counts,HEK293,8003698 and 7428740 and 7873790
same,Inositol raw counts,HEK293,4.90E+07 and 4.97E+07 and 5.16E+07
same,Malate raw counts,HEK293,4.20E+07 and 4.30E+07 and 4.09E+07
same,Methionine sulfoxide raw counts,HEK293,1306694 and 1213389 and 1266229
same,N-acetyl-glutamate raw counts,HEK293,7709980 and 7740664 and 7938092
same,NAD+ raw counts,HEK293,2007890 and 2095398 and 2270274
same,NADH raw counts,HEK293,66228.9 and 82736.6 and 74379.8
same,Proline raw counts,HEK293,1.73E+07 and 1.54E+07 and 1.67E+07
same,S-adenosyl-L-homocysteine raw counts,HEK293,26060 and 26148.7 and 27432.7
same,Serine raw counts,HEK293,3.76E+07 and 4.18E+07 and 4.24E+07
same,Succinate raw counts,HEK293,4.20E+07 and 3.49E+07 and 3.71E+07
same,Thiamine raw counts,HEK293,5.00E+07 and 5.02E+07 and 4.45E+07
same,Threonine raw counts,HEK293,1.30E+08 and 1.21E+08 and 1.29E+08
same,UDP-N-acetyl-glucosamine raw counts,HEK293,6922460 and 7146864 and 7966238
same,5-Hydroxylysine raw counts,LN229 cells,26977.6 and 37147.9 and 37455.2
same,ADP raw counts,LN229 cells,281963 and 259383 and 273694
same,ATP raw counts,LN229 cells,1249224 and 1105136 and 1240834
same,Aconitate raw counts,LN229 cells,744773 and 754391 and 726720
same,Arginine raw counts,LN229 cells,1.51E+07 and 1.74E+07 and 1.57E+07
same,CMP raw counts,LN229 cells,20331.7 and 23148.7 and 22728
same,CTP raw counts,LN229 cells,179874 and 176413 and 181108
same,Citrate raw counts,LN229 cells,1049009 and 934518 and 944496
same,Creatine Phosphate raw counts,LN229 cells,955457 and 940864 and 890509
same,Cystathionine raw counts,LN229 cells,56241.4 and 41026.6 and 55257.1
same,D-Glyceraldehyde-3-phosphate raw counts,LN229 cells,59266.2 and 52020.6 and 54626.7
same,Fructose-1 6-bisphosphate raw counts,LN229 cells,166696 and 126689 and 178645
same,Fructose-6-phosphate raw counts,LN229 cells,95826.4 and 110337 and 115613
same,GMP raw counts,LN229 cells,11308.5 and 7404.49 and 10217
same,GTP raw counts,LN229 cells,153122 and 125534 and 162145
same,Glucose-6-phosphate raw counts,LN229 cells,88085.3 and 91037.8 and 85962.2
same,Glutathione disulfide raw counts,LN229 cells,20165.3 and 26983.3 and 23186.6
same,Isocitrate raw counts,LN229 cells,87479.9 and 73064.6 and 81642.9
same,L-arginino-succinate raw counts,LN229 cells,16067.4 and 9060.83 and 9882.12
same,Lysine raw counts,LN229 cells,3.49E+07 and 4.19E+07 and 3.69E+07
same,NADP+ raw counts,LN229 cells,7400.66 and 9474.38 and 11194
same,NADPH raw counts,LN229 cells,16725.4 and 24193.5 and 23508.9
same,Ornithine raw counts,LN229 cells,2170011 and 2596866 and 2275009
same,Phosphocholine raw counts,LN229 cells,8510163 and 8304614 and 8411928
same,Succinyl-CoA raw counts,LN229 cells,2412.65 and 0 (2×)
same,Thiamine pyrophosphate raw counts,LN229 cells,0 (2×) and 1881.37
same,UDP-D-Glucose raw counts,LN229 cells,715424 and 734399 and 760376
same,UMP raw counts,LN229 cells,21257.6 and 12508 and 19270.4
same,UTP raw counts,LN229 cells,525821 and 442636 and 490428

# “And” between values parts separate entries of the source, which are not always exact repeats. Equal values may be shown once.
